PubChem BioAssay AID1259254 | NCATS – 2017
Here is a random part of about 59,000 reagents tested. About 1,550 of all reagents (2.6%) count as active. 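G2 share is only a proxy for re-replication; each gene was hit by three separate siRNAs, and active genes were retested.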 Raw values vary from plate to plate and are shown uncorrected. The numbers tell different reagents against one gene apart. Not given: the amount of reagent.

- Test: 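Genome-wide screen for genes that prevent DNA re-replication in cancer cells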 (primary screen)
- Cell system: human HCT116 colorectal cancer cells
- Reagent: single siRNA against human genes
- Timing: 3 days
- Measured: 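Nuclei stained with Hoechst and imaged; cell-cycle phase assigned by DNA content; G2 share scaled per plate, non-targeting siRNA 0%, GMNN siRNA 100%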
- Reading the numbers: G2 robust z-score and G2 cells, % of GMNN control: higher = more G2 cells, more excess DNA replication; raw share of cells in G2: higher = larger share of cells with G2 DNA content
- Active means: 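An siRNA counts as active if its G2 robust z-score lies at least 5 MADs above the screen median; here such calls match roughly 38% of GMNN control or more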

target | reagent | G2 robust z-score | G2 cells, % of GMNN control | raw share of cells in G2 (%) | call
SHROOM1 | 1 | -0.917 | -3.49 | 4.02 | inactive
SHROOM1 | 2 | 9.97 | 73.1 | 29.5 | active
SHROOM1 | 3 | -0.164 | 1.82 | 5.08 | inactive
POGZ | 1 | 5.6 | 42.4 | 18.4 | active
POGZ | 2 | -0.791 | -2.6 | 3.29 | inactive
POGZ | 3 | 0.606 | 7.23 | 9.27 | inactive
CHN1 | 1 | -0.158 | 1.85 | 5.62 | inactive
CHN1 | 2 | -0.331 | 0.641 | 5.23 | inactive
CHN1 | 3 | -1.44 | -7.16 | 1.63 | inactive
C15orf32 | 1 | -0.501 | -0.556 | 3.64 | inactive
C15orf32 | 2 | -0.683 | -1.84 | 2.35 | inactive
C15orf32 | 3 | -0.0547 | 2.58 | 3.97 | inactive
DYRK1B | 1 | 1.02 | 10.1 | 8.73 | inactive
DYRK1B | 2 | -1.08 | -4.64 | 3.5 | inactive
DYRK1B | 3 | -0.356 | 0.462 | 3.83 | inactive
SOX10 | 1 | -0.127 | 2.07 | 6.38 | inactive
SOX10 | 2 | 1.72 | 15.1 | 9.71 | inactive
SOX10 | 3 | -0.155 | 1.88 | 4.58 | inactive
REPS1 | 1 | 0.281 | 4.94 | 7.97 | inactive
REPS1 | 2 | 0.248 | 4.72 | 6.26 | inactive
REPS1 | 3 | 0.352 | 5.44 | 7.3 | inactive
OR4P4 | 1 | 0.697 | 7.87 | 7.71 | inactive
OR4P4 | 2 | 0.553 | 6.86 | 7.3 | inactive
OR4P4 | 3 | -0.366 | 0.39 | 2.48 | inactive
FAM170B | 1 | 0.972 | 9.81 | 7.12 | inactive
FAM170B | 2 | -0.602 | -1.27 | 2.53 | inactive
FAM170B | 3 | 1.32 | 12.3 | 6.64 | inactive
ADAMTS9 | 1 | -0.9 | -3.37 | 4.38 | inactive
ADAMTS9 | 2 | -0.604 | -1.28 | 4.45 | inactive
ADAMTS9 | 3 | -0.457 | -0.246 | 3.82 | inactive

Records above whose gene name starts with R or r:
target | reagent | G2 robust z-score | G2 cells, % of GMNN control | raw share of cells in G2 (%) | call
REPS1 | 1 | 0.281 | 4.94 | 7.97 | inactive
REPS1 | 2 | 0.248 | 4.72 | 6.26 | inactive
REPS1 | 3 | 0.352 | 5.44 | 7.3 | inactive
